According to patent US11413354B2, “N-acetylgalactosamino dendron-clearing agent for dota-pretargeted radioimmunotherapy” (priority 2018, dated 2022):

Tests used:
[1] = system: GPA33-expressing SW1222 xenografts; test: Absorbed dose estimates for PRIT+[^177Lu]LuDOTA-Bn including dendron-CA CCA-16-DOTA-Y^3+; format: in vivo, nude mice
Experimental: Absorbed dose estimates for PRIT+[^177Lu]LuDOTA-Bn including dendron-CA CCA-16-DOTA-Y^3+: In order to calculate absorbed doses for PRIT+[[…]]LuDOTA-Bn including dendron-CA (the clearing agent of the present technology), groups of nude mice bearing GPA33-expressing SW1222 xenografts (n=5/group) were injected i.v. with the BsAb huA33-C825 (250 μg; 1.19 nmol) 28 h prior and i.v. with dendron-clearing agent CCA-16-DOTA-Y^3+ (25 μg; 2.76 nmol) 4 h prior to administration of [^177Lu]LuDOTA-Bn (20 pmol, 3.7 MBq [100 μCi]). These mice were sacrificed at 1, 4, 24, or 48 h p.i. of [^177Lu]LuDOTA-Bn for biodistribution assay. For each tissue, the non-decay-corrected time-activity concentration data were fitted using Excel to a 1-component, 2-component, or more complex exponential function as appropriate, and analytically integrated to yield the cumulated activity concentration per unit administered activity (MBq-h/g per MBq). The ^177Lu equilibrium dose constant for non-penetrating radiations (8.49 g-cGy/MBq-h) was used to estimate the tumor-to-tumor and select organ-to-organ self-absorbed doses, assuming complete local absorption of the ^177Lu beta rays only, and ignoring the gamma ray and non-self dose contributions.

[2] = system: SW1222 xenografts (anti-GPA33 PRIT); test: Optimized PRIT+[^177Lu]LuDOTA-Bn including dextran-CA (Cheal et al. 2016): dosimetry and therapy; format: in vivo, mice; conditions: with dextran-CA; at 278 MBq
Excerpt: See Cheal et al., Eur J Nucl Med Mol Imaging 43: 925 (2016). […] Cheal et al., Eur J Nucl Med Mol Imaging 43: 925 (2016).
Based on human normal-tissue radiation dose tolerance estimates derived from clinical observations (Marks, et al., Int J Radiat Oncol Biol Phys. 76:S10-9 (2010)) the maximum tolerated doses (MTDs) are 250 cGy for bone marrow, 1,500 cGy for lung, 3,000 cGy for liver, and 2,000 cGy for kidney. […] At this activity, the estimated absorbed dose delivered to tumor would be 18,292 cGy (183 Gy), with 250 cGy to blood (marrow) and 1,473 cGy to kidney.

[3] = with dendron-CA CCA-16-DOTA-Y^3+ 25 μg
[4] = with dendron-CA, administered activity of 15.6 MBq

## ^177Lu-aminobenzylDOTA [[^177Lu]LuDOTA-Bn]
[1]; [3]
  estimated absorbed dose, blood: 11.7 cGy/MBq
  estimated absorbed dose, kidneys: 13.3 cGy/MBq
  estimated absorbed dose, liver: 9.97 cGy/MBq
  estimated absorbed dose, spleen: 5.49 cGy/MBq
  estimated absorbed dose, tumor: 468.4 cGy/MBq
[1]; [4]
  absorbed dose to blood (marrow): 183 cGy
  absorbed dose to kidney: 207 cGy
  tumor absorbed dose: ~73 Gy
[1]; with dendron-CA, at 21 MBq
  estimated absorbed dose delivered to tumor: 9836 cGy
  estimated absorbed dose to blood (marrow): 246 cGy
  estimated absorbed dose to kidney: 280 cGy
[2]
  estimated absorbed dose delivered to tumor: 18,292 cGy
  estimated absorbed dose to blood (marrow): 250 cGy
  estimated absorbed dose to kidney: 1,473 cGy
